The other results are listed elsewhere or left out.
compound: CC[C@@H]1C(=O)N(C)c2cnc(Nc3ccc(C(=O)NC4CCN(C)CC4)cc3OC)nc2N1C1CCCC1; test: log2 fold change, soluble protein after heating vs DMSO (PISA); higher = thermal stabilisation; K562 cells, 10 uM, 30 min; active = over 0.2 and 3.5 SD of the protein, either way, in both replicates (recomputed)
Summary of the method: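 Thermal stability values are relative to control samples and come from duplicates. They are expressed as log2 fold changes. For measurement, K562 cells (2×10^6 cells/mL) received 10 μM compound for 30 min, and aliquots were heated for 3 min over 48°C-58°C, pooled, and extracted at 4°C in PBS with 0.5% NP-40. Soluble protein, the supernatant after 21,000xg for 90 min, was quantified by TMTpro 16plex LC-MS/MS with equalised channel sums.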

Protein sequences, listed by entry. Tags and fused reporters are not part of them. Lines headed by an entry give the natural chain unless they say otherwise; changes in a name come on top.
UniProt O94889: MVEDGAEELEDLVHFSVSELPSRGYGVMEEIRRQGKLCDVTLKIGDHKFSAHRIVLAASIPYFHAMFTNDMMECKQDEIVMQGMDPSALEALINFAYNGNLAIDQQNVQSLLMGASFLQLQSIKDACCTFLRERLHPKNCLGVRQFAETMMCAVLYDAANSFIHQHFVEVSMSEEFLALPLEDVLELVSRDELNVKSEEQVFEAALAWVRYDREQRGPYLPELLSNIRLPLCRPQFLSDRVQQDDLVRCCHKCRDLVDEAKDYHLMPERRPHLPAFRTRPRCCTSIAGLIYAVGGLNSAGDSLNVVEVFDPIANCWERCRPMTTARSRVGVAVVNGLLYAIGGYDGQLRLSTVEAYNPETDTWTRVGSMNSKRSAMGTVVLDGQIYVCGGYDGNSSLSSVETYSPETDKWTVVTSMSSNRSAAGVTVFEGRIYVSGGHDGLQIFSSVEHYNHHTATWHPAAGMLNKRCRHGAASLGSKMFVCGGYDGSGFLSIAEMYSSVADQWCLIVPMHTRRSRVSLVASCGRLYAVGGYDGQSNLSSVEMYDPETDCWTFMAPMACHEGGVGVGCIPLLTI
UniProt Q1ED39: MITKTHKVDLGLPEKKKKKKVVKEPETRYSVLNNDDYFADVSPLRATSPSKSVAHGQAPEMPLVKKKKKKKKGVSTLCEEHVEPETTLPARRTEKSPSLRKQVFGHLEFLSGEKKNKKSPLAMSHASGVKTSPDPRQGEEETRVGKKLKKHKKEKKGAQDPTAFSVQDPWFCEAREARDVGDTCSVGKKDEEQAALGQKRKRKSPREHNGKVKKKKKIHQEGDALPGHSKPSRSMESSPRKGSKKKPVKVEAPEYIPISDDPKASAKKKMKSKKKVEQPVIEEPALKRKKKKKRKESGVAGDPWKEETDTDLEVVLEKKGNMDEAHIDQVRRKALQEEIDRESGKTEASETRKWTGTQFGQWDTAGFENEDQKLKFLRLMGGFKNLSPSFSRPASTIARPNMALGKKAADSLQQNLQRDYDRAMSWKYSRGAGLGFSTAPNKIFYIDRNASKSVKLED
UniProt O95279: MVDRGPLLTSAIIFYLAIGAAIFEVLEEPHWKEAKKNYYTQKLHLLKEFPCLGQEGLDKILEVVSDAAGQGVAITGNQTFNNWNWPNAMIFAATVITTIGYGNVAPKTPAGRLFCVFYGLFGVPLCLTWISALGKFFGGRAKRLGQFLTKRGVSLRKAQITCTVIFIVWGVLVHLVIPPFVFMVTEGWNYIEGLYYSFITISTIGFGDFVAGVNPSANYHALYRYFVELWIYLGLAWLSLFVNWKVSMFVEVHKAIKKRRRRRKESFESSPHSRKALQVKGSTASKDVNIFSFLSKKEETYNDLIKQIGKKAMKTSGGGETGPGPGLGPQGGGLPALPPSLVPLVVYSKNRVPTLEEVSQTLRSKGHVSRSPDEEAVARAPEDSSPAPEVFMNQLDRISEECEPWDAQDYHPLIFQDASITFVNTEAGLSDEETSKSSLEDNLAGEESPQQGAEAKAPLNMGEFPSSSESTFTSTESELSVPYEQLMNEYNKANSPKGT
UniProt Q9H079: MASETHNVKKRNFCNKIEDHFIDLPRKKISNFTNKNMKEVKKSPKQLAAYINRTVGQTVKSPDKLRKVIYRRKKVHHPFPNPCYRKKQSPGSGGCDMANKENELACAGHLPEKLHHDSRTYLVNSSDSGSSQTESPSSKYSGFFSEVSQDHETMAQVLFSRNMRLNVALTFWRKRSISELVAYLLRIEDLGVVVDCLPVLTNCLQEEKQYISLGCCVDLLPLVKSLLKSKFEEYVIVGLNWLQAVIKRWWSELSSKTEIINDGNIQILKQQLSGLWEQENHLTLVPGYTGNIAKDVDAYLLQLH
UniProt Q15058: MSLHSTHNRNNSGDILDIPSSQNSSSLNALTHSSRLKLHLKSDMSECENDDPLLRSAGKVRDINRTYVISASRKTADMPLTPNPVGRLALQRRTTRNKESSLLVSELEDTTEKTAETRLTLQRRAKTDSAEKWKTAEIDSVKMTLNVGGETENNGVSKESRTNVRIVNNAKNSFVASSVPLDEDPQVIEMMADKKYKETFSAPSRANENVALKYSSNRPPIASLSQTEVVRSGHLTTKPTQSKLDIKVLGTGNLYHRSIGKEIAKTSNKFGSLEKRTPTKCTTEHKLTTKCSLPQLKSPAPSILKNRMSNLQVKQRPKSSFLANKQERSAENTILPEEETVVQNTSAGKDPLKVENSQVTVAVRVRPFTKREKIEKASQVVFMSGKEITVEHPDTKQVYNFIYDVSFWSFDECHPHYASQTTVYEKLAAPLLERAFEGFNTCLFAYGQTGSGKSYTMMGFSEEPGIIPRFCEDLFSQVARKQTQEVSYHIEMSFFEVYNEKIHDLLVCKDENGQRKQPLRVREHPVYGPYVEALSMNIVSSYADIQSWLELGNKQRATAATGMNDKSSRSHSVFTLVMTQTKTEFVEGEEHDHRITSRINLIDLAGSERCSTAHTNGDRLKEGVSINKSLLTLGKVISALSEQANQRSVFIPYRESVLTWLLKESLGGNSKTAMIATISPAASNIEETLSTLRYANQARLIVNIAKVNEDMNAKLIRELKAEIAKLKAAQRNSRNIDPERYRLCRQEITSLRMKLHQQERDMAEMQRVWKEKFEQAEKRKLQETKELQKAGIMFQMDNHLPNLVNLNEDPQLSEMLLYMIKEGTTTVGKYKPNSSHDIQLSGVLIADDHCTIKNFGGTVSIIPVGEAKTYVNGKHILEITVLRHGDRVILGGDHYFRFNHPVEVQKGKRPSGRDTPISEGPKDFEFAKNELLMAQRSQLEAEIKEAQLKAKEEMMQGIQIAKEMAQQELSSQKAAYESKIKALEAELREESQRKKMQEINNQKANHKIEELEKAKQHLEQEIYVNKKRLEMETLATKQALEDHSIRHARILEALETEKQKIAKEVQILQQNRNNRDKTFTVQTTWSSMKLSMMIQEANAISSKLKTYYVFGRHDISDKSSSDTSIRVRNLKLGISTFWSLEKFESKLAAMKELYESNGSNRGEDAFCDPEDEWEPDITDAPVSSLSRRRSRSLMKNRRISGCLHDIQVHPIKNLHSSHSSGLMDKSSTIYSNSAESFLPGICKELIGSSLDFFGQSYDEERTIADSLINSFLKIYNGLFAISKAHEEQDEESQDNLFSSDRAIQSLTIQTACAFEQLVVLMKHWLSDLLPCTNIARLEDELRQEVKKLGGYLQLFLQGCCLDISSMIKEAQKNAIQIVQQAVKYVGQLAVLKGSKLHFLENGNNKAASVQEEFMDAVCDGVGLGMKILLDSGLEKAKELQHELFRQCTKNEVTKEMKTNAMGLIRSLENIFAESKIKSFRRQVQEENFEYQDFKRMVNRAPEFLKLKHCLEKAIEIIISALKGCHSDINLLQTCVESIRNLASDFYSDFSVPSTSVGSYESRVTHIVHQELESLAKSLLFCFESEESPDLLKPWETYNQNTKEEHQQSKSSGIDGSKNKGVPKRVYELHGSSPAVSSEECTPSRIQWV
UniProt Q8N6L1: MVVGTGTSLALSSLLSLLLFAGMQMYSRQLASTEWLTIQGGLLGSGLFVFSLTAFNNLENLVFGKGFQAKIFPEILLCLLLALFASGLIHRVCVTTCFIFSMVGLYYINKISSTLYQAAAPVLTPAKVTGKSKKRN
UniProt Q13351: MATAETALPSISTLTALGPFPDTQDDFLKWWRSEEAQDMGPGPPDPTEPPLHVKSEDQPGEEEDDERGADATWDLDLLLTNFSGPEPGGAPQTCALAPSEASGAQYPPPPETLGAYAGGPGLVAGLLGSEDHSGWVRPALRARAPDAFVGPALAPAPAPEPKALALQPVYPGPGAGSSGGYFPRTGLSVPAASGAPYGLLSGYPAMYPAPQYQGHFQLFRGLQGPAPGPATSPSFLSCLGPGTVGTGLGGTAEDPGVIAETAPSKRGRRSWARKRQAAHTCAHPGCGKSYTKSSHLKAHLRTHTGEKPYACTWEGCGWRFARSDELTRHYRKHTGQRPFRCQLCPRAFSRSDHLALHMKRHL
UniProt P01042: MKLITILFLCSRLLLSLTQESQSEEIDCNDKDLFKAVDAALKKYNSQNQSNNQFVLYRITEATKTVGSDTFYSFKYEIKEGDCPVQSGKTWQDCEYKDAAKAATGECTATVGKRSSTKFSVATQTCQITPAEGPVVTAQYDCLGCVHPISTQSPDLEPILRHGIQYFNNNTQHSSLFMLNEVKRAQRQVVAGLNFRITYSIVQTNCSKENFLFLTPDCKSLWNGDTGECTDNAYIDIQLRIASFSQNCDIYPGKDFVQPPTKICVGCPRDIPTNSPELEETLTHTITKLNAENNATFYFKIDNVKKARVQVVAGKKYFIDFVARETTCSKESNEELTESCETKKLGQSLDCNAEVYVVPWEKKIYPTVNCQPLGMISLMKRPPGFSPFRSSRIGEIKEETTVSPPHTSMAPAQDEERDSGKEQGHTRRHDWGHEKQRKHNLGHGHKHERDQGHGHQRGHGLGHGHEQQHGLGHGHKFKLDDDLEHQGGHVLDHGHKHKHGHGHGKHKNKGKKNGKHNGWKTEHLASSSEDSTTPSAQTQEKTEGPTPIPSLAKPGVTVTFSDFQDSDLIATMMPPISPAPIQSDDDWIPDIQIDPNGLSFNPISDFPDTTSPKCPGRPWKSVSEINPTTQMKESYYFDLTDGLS
UniProt Q14145, whole entry, looked up: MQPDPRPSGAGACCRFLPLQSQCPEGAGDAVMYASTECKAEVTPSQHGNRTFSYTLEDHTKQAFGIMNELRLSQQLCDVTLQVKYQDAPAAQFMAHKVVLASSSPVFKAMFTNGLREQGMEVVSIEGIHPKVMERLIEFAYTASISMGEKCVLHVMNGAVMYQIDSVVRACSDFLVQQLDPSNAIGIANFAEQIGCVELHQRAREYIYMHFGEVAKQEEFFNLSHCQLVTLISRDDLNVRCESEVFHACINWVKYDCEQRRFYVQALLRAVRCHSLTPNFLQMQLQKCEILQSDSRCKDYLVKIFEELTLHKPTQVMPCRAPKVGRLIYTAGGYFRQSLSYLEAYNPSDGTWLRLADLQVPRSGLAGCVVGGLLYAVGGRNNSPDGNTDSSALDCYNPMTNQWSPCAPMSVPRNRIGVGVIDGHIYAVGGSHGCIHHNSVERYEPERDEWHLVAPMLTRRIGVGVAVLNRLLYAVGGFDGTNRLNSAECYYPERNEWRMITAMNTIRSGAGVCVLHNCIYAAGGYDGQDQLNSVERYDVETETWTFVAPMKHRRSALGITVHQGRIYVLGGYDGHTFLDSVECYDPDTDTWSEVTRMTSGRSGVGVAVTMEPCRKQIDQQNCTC
UniProt Q9BXK1: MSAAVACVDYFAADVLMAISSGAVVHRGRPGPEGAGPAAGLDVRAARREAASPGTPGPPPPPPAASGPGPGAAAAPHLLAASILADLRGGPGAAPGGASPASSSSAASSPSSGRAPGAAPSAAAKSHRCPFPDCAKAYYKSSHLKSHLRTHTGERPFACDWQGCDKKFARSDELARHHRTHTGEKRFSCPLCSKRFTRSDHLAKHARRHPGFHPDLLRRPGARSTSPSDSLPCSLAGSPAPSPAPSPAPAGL
UniProt P52732: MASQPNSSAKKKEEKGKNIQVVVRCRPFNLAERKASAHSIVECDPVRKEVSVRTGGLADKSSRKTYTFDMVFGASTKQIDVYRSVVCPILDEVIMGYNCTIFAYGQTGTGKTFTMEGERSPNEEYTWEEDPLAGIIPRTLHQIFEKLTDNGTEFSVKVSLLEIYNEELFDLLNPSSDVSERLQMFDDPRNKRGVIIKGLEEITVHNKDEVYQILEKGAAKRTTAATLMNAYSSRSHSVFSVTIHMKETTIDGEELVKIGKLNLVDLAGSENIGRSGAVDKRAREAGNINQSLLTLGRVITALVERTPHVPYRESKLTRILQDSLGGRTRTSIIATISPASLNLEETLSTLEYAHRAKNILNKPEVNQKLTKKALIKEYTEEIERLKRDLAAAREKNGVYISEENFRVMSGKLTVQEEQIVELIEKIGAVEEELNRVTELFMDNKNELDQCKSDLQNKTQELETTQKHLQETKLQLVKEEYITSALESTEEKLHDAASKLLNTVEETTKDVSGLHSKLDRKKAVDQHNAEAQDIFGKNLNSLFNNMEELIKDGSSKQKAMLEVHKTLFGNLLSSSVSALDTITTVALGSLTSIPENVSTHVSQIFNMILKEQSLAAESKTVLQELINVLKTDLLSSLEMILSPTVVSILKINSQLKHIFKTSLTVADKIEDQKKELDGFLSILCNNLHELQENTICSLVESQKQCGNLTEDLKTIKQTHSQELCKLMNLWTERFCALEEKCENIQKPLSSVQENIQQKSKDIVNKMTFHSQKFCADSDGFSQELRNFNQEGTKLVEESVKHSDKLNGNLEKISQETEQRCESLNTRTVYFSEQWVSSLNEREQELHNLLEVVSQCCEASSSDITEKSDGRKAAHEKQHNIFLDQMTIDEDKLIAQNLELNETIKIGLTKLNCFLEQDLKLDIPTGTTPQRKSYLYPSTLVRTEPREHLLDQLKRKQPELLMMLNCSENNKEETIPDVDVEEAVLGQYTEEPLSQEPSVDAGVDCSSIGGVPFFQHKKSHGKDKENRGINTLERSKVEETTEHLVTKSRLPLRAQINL

log2 fold change, inactive:
KSR1 (UniProt Q8IVT5) -0.11
KIF3A (UniProt Q9Y496) 0.036
KPNB1 (UniProt Q14974) -0.105
JUNB (UniProt P17275) 0.255
KCNN4 (UniProt O15554) -0.047
KLHL18 (UniProt O94889) 0.075
KNOP1 (UniProt Q1ED39) 0.055
KIFBP (UniProt Q96EK5) -0.007
KIF13B (UniProt Q9NQT8) 0.099
KCNK5 (UniProt O95279) -0.042
KPNA1 (UniProt P52294) -0.039
KIFC3 isoform 6 (UniProt Q9BVG8) 0.198
KIAA1755 (UniProt Q5JYT7) 0.055
KAT7 (UniProt O95251) 0.104
KATNBL1 (UniProt Q9H079) -0.105
KIF14 (UniProt Q15058) 0.354
KBTBD4 isoform 2 (UniProt Q9NVX7) 0.155
KHDC4 (UniProt Q7Z7F0) -0.063
KNTC1 (UniProt P50748) -0.255
KIF3B (UniProt O15066) 0.156
KLC2 (UniProt Q9H0B6) -0.03
KRTCAP2 isoform 2 (UniProt Q8N6L1) -0.005
KIZ (UniProt Q2M2Z5) 0.104
KAT6B (UniProt Q8WYB5) -0.006
KIF26A (UniProt Q9ULI4) 0.101
KLF1 (UniProt Q13351) -0.006
KNG1 (UniProt P01042) -0.039
KEAP1 (UniProt Q14145) -0.026
KLF16 (UniProt Q9BXK1) 0.017
KIF1B isoform 4 (UniProt O60333) -0.042
KIF11 (UniProt P52732) 0.016
JMJD6 isoform 3 (UniProt Q6NYC1) -0.044
JPT2 isoform 2 (UniProt Q9H910) -0.297

At a glance, part of the list above.
log2 fold change, inactive:
KIF14 (UniProt Q15058) 0.354
KBTBD4 isoform 2 (UniProt Q9NVX7) 0.155

From the supplement of paper PMC10849652
